# Assay results as given in the supplement of paper PMC10331698.
# ± gives the standard deviation of the averaged measurements. Most entries show no effect beyond the scatter of the controls.
# Tests used:
# Test in all cases: level (log10 ratio to DMSO vehicle control); higher = higher biomarker level / cell amount than vehicle control
# [1] = compound: CC(C)(C)C(=O)CC(=O)C(F)(F)C(F)(F)C(F)(F)F [(Heptafluorobutanoyl)pivaloylmethane]; conditions: 2200 nM; in DMSO
# Procedure: (§1)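 BioMAP Diversity Plus panel of 12 human primary cell co-culture systems (3C, 4H, LPS, SAg, BT, BF4T, BE3C, CASM3C, HDF3CGF, KF3CT, MyoF, Mphg). Compounds were added 1 h before stimulation and left for 24 h (MyoF 48 h; BT 72 h for soluble read-outs or 6 d for IgG). Biomarkers were read by ELISA, cytotoxicity by SRB, PBMC viability and proliferation by Alamar Blue. Each well value was divided by the mean of 8 DMSO control wells on the same plate and log10 transformed; duplicate blinded samples were tested at 4 concentrations.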
# 1-(Perfluorohexyl)octane = compound: CCCCCCCCC(F)(F)C(F)(F)C(F)(F)C(F)(F)C(F)(F)C(F)(F)F [1-(Perfluorohexyl)octane]; conditions: in DMSO
# Procedure: as §1
# [2] = compound: CCN(CCO)S(=O)(=O)C(F)(F)C(F)(F)C(F)(F)C(F)(F)C(F)(F)C(F)(F)C(F)(F)C(F)(F)F [N-Ethyl-N-(2-hydroxyethyl)perfluorooctanesulfonamide]; conditions: in DMSO
# Procedure: as §1
# [3] = compound: CN(C(=O)C(F)(F)C(F)(F)C(F)(F)F)[Si](C)(C)C [N-Methyl-N-trimethylsilylheptafluorobutyramide]; conditions: 2200 nM; in DMSO
# Procedure: as §1
# [4] = compound: Cc1ccc(S(=O)(=O)OCC(F)(F)C(F)(F)C(F)(F)C(F)(F)C(F)(F)C(F)F)cc1 [1H,1H,7H-Perfluoroheptyl 4-methylbenzenesulfonate]; conditions: 2200 nM; in DMSO
# Procedure: as §1
# [5] = compound: FC(F)(F)C(F)(F)C(F)(F)C(F)(F)C(F)(F)C(F)(F)CC1CO1 [3-(Perfluorohexyl)-1,2-epoxypropane]; conditions: 2200 nM; in DMSO
# Procedure: as §1
# Heptafluorobutyramide = compound: NC(=O)C(F)(F)C(F)(F)C(F)(F)F [Heptafluorobutyramide]; conditions: 2200 nM; in DMSO
# Procedure: as §1
# [6] = compound: NCC(F)(F)C(F)(F)C(F)(F)C(F)(F)C(F)(F)C(F)(F)C(F)(F)F [1H,1H-Perfluorooctylamine]; conditions: 2200 nM; in DMSO
# Procedure: as §1
# Octafluoroadipic acid = compound: O=C(O)C(F)(F)C(F)(F)C(F)(F)C(F)(F)C(=O)O [Octafluoroadipic acid]; conditions: 2200 nM; in DMSO
# Procedure: as §1
# [7] = compound: O=C(O)C(F)(F)C(F)(F)C(F)(F)C(F)(F)C(F)(F)C(F)(F)C(F)(F)C(F)(F)C(F)(F)C(F)F [11-H-Perfluoroundecanoic acid]; conditions: 2200 nM; in DMSO
# Procedure: as §1
# Perfluoroheptanoic acid = compound: O=C(O)C(F)(F)C(F)(F)C(F)(F)C(F)(F)C(F)(F)C(F)(F)F [Perfluoroheptanoic acid]; conditions: in DMSO
# Procedure: as §1
# Perfluoropentanoic acid = compound: O=C(O)C(F)(F)C(F)(F)C(F)(F)C(F)(F)F [Perfluoropentanoic acid]; conditions: in DMSO
# Procedure: as §1
# [8] = compound: O=C(O)C(F)(F)C(F)(F)C(F)(F)OC(F)(F)F [Perfluoro(4-methoxybutanoic) acid]; conditions: 2200 nM; in DMSO
# Procedure: as §1
# [9] = compound: O=S(=O)(O)CCC(F)(F)C(F)(F)C(F)(F)C(F)(F)C(F)(F)C(F)(F)C(F)(F)C(F)(F)F [8:2 Fluorotelomer sulfonic acid]; conditions: in DMSO
# Procedure: as §1
# 1H,1H-Heptafluorobutanol = compound: OCC(F)(F)C(F)(F)C(F)(F)F [1H,1H-Heptafluorobutanol]; conditions: 2200 nM; in DMSO
# Procedure: as §1
# [10] = compound: OCCC(F)(F)C(F)(F)C(F)(F)C(F)(F)C(F)(F)C(F)(F)F [6:2 Fluorotelomer alcohol]; conditions: 2200 nM; in DMSO
# Procedure: as §1
Test System,level (log10) [1],level (log10) (1-(Perfluorohexyl)octane; 740 nM),level (log10) (1-(Perfluorohexyl)octane; 2200 nM),level (log10) ([2]; 2200 nM),level (log10) ([2]; 6700 nM),level (log10) ([2]; 20000 nM),level (log10) [3],level (log10) [4],level (log10) [5],level (log10) (Heptafluorobutyramide),level (log10) [6],level (log10) (Octafluoroadipic acid),level (log10) [7],level (log10) (Perfluoroheptanoic acid; 2200 nM),level (log10) (Perfluoroheptanoic acid; 6700 nM),level (log10) (Perfluoroheptanoic acid; 20000 nM),level (log10) (Perfluoroheptanoic acid; 60000 nM),level (log10) (Perfluoropentanoic acid; 2200 nM),level (log10) (Perfluoropentanoic acid; 6700 nM),level (log10) (Perfluoropentanoic acid; 20000 nM),level (log10) (Perfluoropentanoic acid; 60000 nM),level (log10) [8],level (log10) ([9]; 2200 nM),level (log10) ([9]; 6700 nM),level (log10) ([9]; 20000 nM),level (log10) ([9]; 60000 nM),"level (log10) (1H,1H-Heptafluorobutanol)",level (log10) [10]
LPS:CD141/Thrombomodulin,-0.016 ± 0.0057,0.008 ± 0.027,-0.008 ± 0.0042,0.101 ± 0.018,0.117 ± 0.0042,0.201,0.0125 ± 0.025,0.003 ± 0.02,-0.019 ± 0.02,-0.0465 ± 0.063,-0.0095 ± 0.005,-0.022 ± 0.013,0.0505 ± 0.052,-0.009,-0.0115 ± 0.03,0.002 ± 0.011,-0.035 ± 0.0099,-0.004 ± 0.025,-0.0115 ± 0.047,-0.045 ± 0.073,-0.0085 ± 0.11,-0.0235 ± 0.015,-0.0015 ± 0.1,0.007 ± 0.11,0.0505 ± 0.071,0.205 ± 0.016,0.004 ± 0.017,-0.016 ± 0.0057
LPS:CD142/Tissue Factor,0.008 ± 0.016,-0.0035 ± 0.097,-0.01 ± 0.1,0.0775 ± 0.013,0.139 ± 0.038,0.312 ± 0.037,0.0105 ± 0.056,-0.041 ± 0.11,-0.019 ± 0.0028,0.0035 ± 0.022,0.017 ± 0.067,0.006 ± 0.052,0.0245 ± 0.033,-0.0085 ± 0.022,-0.0025 ± 0.005,-0.007 ± 0.013,0.0245 ± 0.005,-0.012 ± 0.0099,0.006 ± 0.0099,-0.007 ± 0.051,0.031 ± 0.099,-0.0125 ± 0.026,-0.0005 ± 0.022,0.0005 ± 0.067,0.024 ± 0.088,-0.0025 ± 0.011,-0.003 ± 0.011,0.0095 ± 0.013
LPS:CXCL8/IL-8,-0.008 ± 0.0042,0.019 ± 0.047,0.0115 ± 0.025,0.069 ± 0.0071,0.039 ± 0.0042,-0.003 ± 0.0028,0.0055 ± 0.0064,0.022 ± 0.031,-0.011 ± 0.0085,0.014 ± 0.072,-0.028 ± 0.028,0.012 ± 0.014,-0.0185 ± 0.011,0.0295 ± 0.0021,0.0085 ± 0.033,0.027 ± 0.03,0.105 ± 0.059,0.016 ± 0.045,-0.0075 ± 0.00071,-0.0095 ± 0.022,0.0245 ± 0.052,0.0155 ± 0.083,0.048 ± 0.041,0.01 ± 0.11,0.0485 ± 0.012,-0.053 ± 0.17,0.016,0.039 ± 0.045
LPS:IL-1alpha,-0.0365 ± 0.029,0.006 ± 0.0028,-0.008 ± 0.013,0.0155 ± 0.019,-0.098 ± 0.013,-0.141 ± 0.026,-0.0045 ± 0.018,0.0115 ± 0.021,0.0055 ± 0.028,-0.018 ± 0.023,-0.002 ± 0.011,-0.0005 ± 0.06,0.0085 ± 0.054,0.019 ± 0.035,-0.002 ± 0.0057,-0.0265 ± 0.0078,0.006 ± 0.047,0 ± 0.023,-0.0005 ± 0.00071,-0.0115 ± 0.012,-0.021 ± 0.017,-0.018 ± 0.035,-0.024 ± 0.037,-0.0195 ± 0.03,-0.016 ± 0.037,-0.283 ± 0.19,-0.029 ± 0.033,0.006 ± 0.072
LPS:M-CSF,-0.002 ± 0.0014,0.0035 ± 0.094,-0.014 ± 0.054,0.0115 ± 0.033,0.0495 ± 0.033,0.104 ± 0.041,0.0025 ± 0.015,0.017 ± 0.061,0.0085 ± 0.0064,0.006 ± 0.016,0.0025 ± 0.044,0.0055 ± 0.025,0.0215 ± 0.019,-0.016 ± 0.044,-0.028 ± 0.024,-0.008 ± 0.018,-0.007 ± 0.038,-0.0085 ± 0.00071,-0.031 ± 0.024,-0.061 ± 0.11,-0.0385 ± 0.11,0.0075 ± 0.0035,0.037 ± 0.025,-0.016 ± 0.041,0.0075 ± 0.054,-0.0795 ± 0.088,0.0415 ± 0.019,0.004 ± 0.014
LPS:SRB,-0.001 ± 0.0085,0.015 ± 0.0099,-0.0015 ± 0.016,-0.013 ± 0.0085,-0.0345 ± 0.0035,-0.084 ± 0.02,0.007 ± 0.018,0.004 ± 0.017,0.005 ± 0.0014,-0.0025 ± 0.00071,0.0025 ± 0.0078,-0.0035 ± 0.011,0.008 ± 0.016,-0.008 ± 0.0057,-0.019 ± 0.0085,0.001 ± 0.0028,-0.019 ± 0.0099,-0.002 ± 0.0042,0.0015 ± 0.0078,0.004,0.003 ± 0.0085,-0.0045 ± 0.005,0.002 ± 0.011,-0.0085 ± 0.005,-0.0095 ± 0.019,-0.02 ± 0.018,-0.0085 ± 0.0078,-0.0015 ± 0.012
LPS:sPGE2,-0.0305 ± 0.012,0.054 ± 0.0085,-0.0235 ± 0.033,-0.037 ± 0.0042,-0.023 ± 0.023,0.07 ± 0.0042,0.037 ± 0.071,0.018 ± 0.037,-0.016 ± 0.0028,-0.022 ± 0.023,-0.0185 ± 0.059,-0.001 ± 0.11,0.0075 ± 0.026,0.026,0.0295 ± 0.005,-0.0185 ± 0.022,-0.0285 ± 0.059,-0.001 ± 0.033,-0.008 ± 0.11,-0.018 ± 0.0028,0.017 ± 0.011,-0.035 ± 0.027,0.0135 ± 0.064,-0.0245 ± 0.0035,-0.078 ± 0.047,-0.293 ± 0.017,0.0115 ± 0.016,0.0245 ± 0.015
LPS:sTNF-alpha,-0.053 ± 0.0085,0.001 ± 0.0028,0.0025 ± 0.013,-0.0015 ± 0.0078,-0.006 ± 0.0028,-0.005 ± 0.0085,-0.0055 ± 0.0035,-0.01 ± 0.025,0.0435 ± 0.026,0.0005 ± 0.0064,-0.003 ± 0.021,0.0065 ± 0.0078,0.008 ± 0.0042,0.0065 ± 0.093,-0.0265 ± 0.054,-0.049 ± 0.0071,-0.0215 ± 0.046,0.006 ± 0.011,0.003 ± 0.021,0.01 ± 0.0071,0.021 ± 0.014,-0.0085 ± 0.026,0.0035 ± 0.0078,0.0095 ± 0.011,-0.006 ± 0.0099,-0.212 ± 0.12,-0.004 ± 0.0042,0.031 ± 0.089
MyoF:CD106/VCAM-1,-0.021 ± 0.018,-0.0135 ± 0.005,-0.002 ± 0.013,-0.031 ± 0.014,-0.0675 ± 0.0064,-0.534 ± 0.053,-0.0185 ± 0.005,-0.001 ± 0.0014,0.0095 ± 0.025,-0.0425 ± 0.036,-0.0255 ± 0.028,-0.0325 ± 0.00071,0.006,0.0095 ± 0.013,-0.013 ± 0.0071,-0.004 ± 0.016,-0.0125 ± 0.015,-0.003 ± 0.025,0.0025 ± 0.005,0.001,-0.001 ± 0.0057,-0.038 ± 0.0057,-0.0085 ± 0.005,-0.0035 ± 0.0021,-0.0325 ± 0.016,-0.084 ± 0.02,-0.0005 ± 0.015,0.003 ± 0.023
